Reference: doi:10.64898/2025.12.16.694471
These are yes or no findings as the source states them, for the method shown. Binding seen in cells or lysates may run through a third protein. Some entries that bind do so weakly or less than the wild type. Sequences can lack the tags named with a protein.

Biological target: T1, FLAG-Piwi (Drosophila melanogaster) (UniProt Q9VKM1)
T1 sequence: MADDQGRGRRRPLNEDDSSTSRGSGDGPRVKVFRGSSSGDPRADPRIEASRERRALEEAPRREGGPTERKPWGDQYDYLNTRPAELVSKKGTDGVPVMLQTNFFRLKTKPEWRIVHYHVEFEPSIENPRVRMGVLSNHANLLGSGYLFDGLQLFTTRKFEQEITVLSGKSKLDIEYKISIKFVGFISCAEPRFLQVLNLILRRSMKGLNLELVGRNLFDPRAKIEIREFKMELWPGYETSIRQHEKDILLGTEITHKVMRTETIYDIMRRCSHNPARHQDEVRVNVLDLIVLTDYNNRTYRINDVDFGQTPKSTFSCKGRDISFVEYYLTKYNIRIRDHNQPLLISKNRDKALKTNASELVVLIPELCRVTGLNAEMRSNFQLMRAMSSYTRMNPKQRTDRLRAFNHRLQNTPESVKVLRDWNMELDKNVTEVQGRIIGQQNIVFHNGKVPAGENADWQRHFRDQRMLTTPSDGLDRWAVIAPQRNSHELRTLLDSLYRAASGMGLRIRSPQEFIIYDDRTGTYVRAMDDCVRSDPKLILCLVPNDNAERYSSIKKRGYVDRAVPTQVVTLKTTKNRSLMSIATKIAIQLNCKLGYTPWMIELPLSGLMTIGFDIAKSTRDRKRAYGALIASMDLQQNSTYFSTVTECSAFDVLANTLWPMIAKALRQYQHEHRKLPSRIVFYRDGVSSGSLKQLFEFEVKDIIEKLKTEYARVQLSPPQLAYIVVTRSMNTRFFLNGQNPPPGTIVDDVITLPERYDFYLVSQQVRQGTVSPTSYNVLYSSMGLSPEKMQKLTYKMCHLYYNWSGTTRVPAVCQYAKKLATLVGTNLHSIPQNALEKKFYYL
Experiment: co-IP

B1: Maelstrom (protein, UniProt Q9VNS0 1-459)
chain: MAPKKHSGFMMFVNEWRNRNAEGRRMTLAQAVSHCGTIWEKMNTQQRGPYNSGGKDANVAQRAKRESSNGHGQVDKAQREATESLMDMKRTIERLVLNAKMSHDLENAKFVFVAFNYFTKALTTDVYVPAEFAACEYSLKEGIRSIYSTMIDPGQIIFGQGSDALLHSSTTHDLPLPPNALGEKNMTKLYRNIVDYLSKCQGKGKTLVVFTPAENITMVKSCFRYLECDDDFRDGGEKIQVFDIQYLLFILKKEVMNVADLNDEKINKFATDAFFKKDFFEFTAGIACQYHEDNDRTKYCTQSMVTRWAYTFTDFMCGDLAITVQPGKHIPAQTKPNYLIISSYASSLDHESSFDSFYSLPGSGVKKESQPEACSLSSSRLSVASSSYKPIDHTSFAANLNEVSEFPSLGMRNSSKHHGIAASAQREWNARNLPTHSRLIRKVSDNDFSVNGADGKLKK
  binding: binds
